## Library screen at single concentrations

Source: ChEMBL document CHEMBL3988442, “University of Dundee, Small-Polar-MMV Screening Library” (2021).

A: 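Growth of Mycobacterium tuberculosis over 4 days (cholesterol / DPPC medium with tyloxapol); the read-out is not stated. Tested at 50 µM. The record gives no direction; compounds that gave an IC50 in retests scored well above the rest, so higher reads as more growth inhibition. Of about 69,000 compounds tested this way, about 370 (0.54%) reached 50% or more in at least one test.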
B: 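Growth of Mycobacterium tuberculosis over 3 days (7H9 medium with glucose and tyloxapol); the read-out is not stated. Compounds at 50 µM. The record gives no direction; compounds that gave an IC50 in retests scored well above the rest, so higher reads as more growth inhibition. Size under these conditions: about 69,000 compounds, about 760 of them at 50% or above in at least one test.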

Results are given as percent effect. How 0% and 100% were set is not recorded. Most values in the screen are low, and negative values occur. This is an unselected part of the compounds tested. Two or more numbers in one place are separate tests of the same structure; such repeats can differ widely.

| # | SMILES | A | B |
|---|---|---|---|
| 1 | `Cc1cccc(CC2CCCN(C(=O)Cc3csc(C)n3)C2)n1` (centres undefined) | -26.96 | -17.79 |
| 2 | `CN(Cc1ccsc1)C(=O)c1cc2c([nH]c1=O)CCC2` | -3.423 | -26.53 |
| 3 | `[H][C@]12CN(Cc3ccsc3)CC[C@@]1(O)CCN(C(=O)COC)C2` | -21.41 | -29.92 |
| 4 | `Cc1cc(CN(CC(N)=O)CC(C)C)no1` | 2.601 | -25.76 and 0.6657 |
| 5 | `O=C(CCc1ccccn1)N1CCCC(n2cncn2)C1` (centres undefined) | 11.71 | -3.797 and 4.272 |
| 6 | `CC(C)Oc1ccccc1C1CC(=O)Nc2c1cnn2C` (centres undefined) | 3.98 | 3.677 and -4.631 |
| 7 | `CCn1nc2c(cc1=O)CN(Cc1ccc(-n3cccn3)cc1)CC2` | 18.25 | -0.8159 |
| 8 | `O=S(=O)(Cc1ccc(F)c(Cl)c1)NC(CO)c1ccco1` (centres undefined) | 7.014 | 14.53 |
| 9 | `c1ccc(Cc2nc(CN3CCCC3Cn3cncn3)cs2)cc1` (centres undefined) | -5.702 | 12.24 |
| 10 | `CCNC(=O)NC(=O)CN(CC(C)O)c1ccccc1` (centres undefined) | 21.93 | 30.28 |
| 11 | `Cc1cc(N(C)C)nc(C2COCCN2Cc2cscn2)n1` (centres undefined) | 5.471 and -5.829 | 22.49 |
| 12 | `CCN(Cc1ccncc1)CC1(O)CCN(C(=O)c2cccc(C)n2)C1` (centres undefined) | -0.08981 | 8.012 |
| 13 | `COCCN1CCN(CC(=O)N(C)Cc2ccccc2)CC1C` (centres undefined) | -27.21 | -10.58 |
| 14 | `CN1CCCc2sc(C(=O)NCc3cccnc3)nc21` | 12.13 | -6.193 and -19.21 |
| 15 | `CN1CCC(c2cnc(NCc3nccn3C)cn2)CC1` | -27.5 | -0.5652 |
| 16 | `CCN1CCC[C@@H]1CNC(=O)c1cc(COc2ccccc2)[nH]n1` | -29.23 | 24.46 |
| 17 | `CC(C)n1cc(C(=O)N2CCN(c3cccc(C(F)(F)F)c3)CC2)cn1` | 25.58 | 12.96 |
| 18 | `[H][C@@]12CCN(C(=O)CCC(C)C)C[C@]1(c1nc(C)no1)CCO2` | -8.121 | -8.287 and -4.902 |
| 19 | `CCN(Cc1ccc2c(c1)OCO2)C(=O)c1cccnc1O` | -7.271 | -9.34 |
| 20 | `CN(C)C(=O)COCC1CN(Cc2ccoc2)Cc2nnn(C)c21` (centres undefined) | -29.46 | 1.576 |
| 21 | `CCCN1CCC(c2nc3ccc(-c4cccc(OC)c4)cn3n2)CC1.O=C(O)C(F)(F)F` | -6.123 | 23.55 |
| 22 | `CC(C)(C(=O)NCC1CCN(Cc2ccccn2)C1)c1ccccc1` (centres undefined) | -35.22 | 25.18 |
| 23 | `Cc1cc(C(=O)N2CCc3ncnc(N4CCSCC4)c3CC2)[nH]n1` | 2.464 | 6.87 and 3.484 |
| 24 | `COCCN(Cc1cccs1)c1nc(CCN)nc2ccccc12` | 9.752 | 31.71 |
| 25 | `CC(C)COC(C)C(=O)NCc1cc(F)cc(F)c1` (centres undefined) | 13.25 | 6.713 |
| 26 | `CC(C)Cn1c2c(ccc1=O)CC(NC(=O)c1ccsc1)CC2` (centres undefined) | -7.164 | -30.64 |
| 27 | `Cc1nc(C(=O)N2CCOCC2)cc(N2CCC(C(N)=O)CC2)n1` | 6.23 | 5.026 |
| 28 | `c1cnc(-c2nc(C3CCOC3)no2)cn1` (centres undefined) | 35.25 and 80.94 | -35.53 |
| 29 | `Cc1cccc(CN(Cc2ccccn2)S(=O)(=O)N(C)C(C)C)c1` | 6.872 | 16.33 and -8.975 |
| 30 | `Cc1ccc(NC2CCN(C(=O)c3ccnc(N(C)C)c3)CC2)nn1` | -28.35 | -9.152 |
| 31 | `CC(C)C1=NOC(c2nc(-c3cccc(Cl)c3)no2)C1` (centres undefined) | 29.67 | 45.12 |
| 32 | `O=S(=O)(CCCNC1CCc2ncnn2C1)c1ccccc1` (centres undefined) | -16.49 | -38.11 |
| 33 | `Cc1csc(C2CCCN(C(=O)c3cnn4ccc(C)nc34)C2)n1` (centres undefined) | 11.57 | -4.283 |
| 34 | `CC(C)n1cnnc1C1CCCN(S(=O)(=O)CCCF)C1` (centres undefined) | -5.208 | 6.456 |
| 35 | `CN1CCCCC1Cc1nc2c(cc1C(N)=O)CCC2` (centres undefined) | 3.281 | -6.865 and 6.334 |
| 36 | `CCCC(C)(C)NC(=O)c1cnc(C)s1` | -13.22 | -11.58 and 12.01 |
| 37 | `CCc1nnc(Nc2cccc(C3CCN(C(=O)CN(C)C)CC3)n2)s1` | -8.88 | -0.5008 |
| 38 | `c1cnc(-c2nn3c(CN4CCOCC4)nnc3s2)cn1` | -28.17 | -35.06 |
| 39 | `[H][C@@]12COC[C@]1([H])[C@@H](OCC1CCOCC1)CN2c1ncccn1` | 8.358 | -10.98 and -7.054 |
| 40 | `CCOc1ncccc1CNC(=O)N1CCCC1c1ccsc1` (centres undefined) | -10.5 | -4.297 |
| 41 | `Cc1noc(Cl)c1CCC(=O)N1CCC(CC(N)=O)CC1` | -6.009 | -10.66 |
| 42 | `CSc1ccsc1C(=O)NS(=O)(=O)c1cccc(C#N)c1` | 12.28 | -3.848 |
| 43 | `COc1ccc(CN2C[C@@H](O)[C@](O)(CNC(=O)c3ccccn3)C2)cc1` | -13.13 | 13.62 |
| 44 | `Cc1cc(C(=O)N2CCCC(c3ccc(C(=O)O)cc3)C2)c(C)o1` (centres undefined) | -1.866 | 0.9874 |
| 45 | `O=S1(=O)COCCN1CCOc1ccccc1` | -1.422 | 0.01888 |
| 46 | `N#CC1CCCN(c2nc(-c3ccccc3)nc3c2CCNCC3)C1` (centres undefined) | 11.15 | 25.46 |
| 47 | `[H][C@@]12CCN(Cc3cc(C)on3)C[C@@]1([H])O[C@@H](C(=O)N(C)C)C2` | -11.11 | 0.7965 |
| 48 | `CN(c1ncccc1C#N)C1CCN(CCc2ccccn2)CC1` | -13.63 | -5.493 |
| 49 | `CC(Cn1cccn1)NS(=O)(=O)Cc1ccccc1` (centres undefined) | -45.47 | 97.1 |
| 50 | `CC(C)Nc1ncnc2c1CCN(C(=O)c1ccncc1F)CC2.O=C(O)C(F)(F)F` | -18.55 | 4.901 |
| 51 | `CCc1nccn1C1CCCN(C(=O)CCCc2ccccn2)C1` (centres undefined) | -8.926 | -13.81 |
| 52 | `COc1ccccc1C(C)(C)NC(=O)Nc1ccc(F)c(C(N)=O)c1` | -2.937 | -3.091 |
| 53 | `CCN(Cc1noc(C)n1)C(=O)C(c1cccc(C)c1)N(C)C` (centres undefined) | -13.06 | -10.41 |
| 54 | `CC(=O)N1CCC2(CCN(S(=O)(=O)c3ccccc3)CC2)C1` | -15.72 | -18.85 |
| 55 | `Cc1nc(C)n(CC2CCCN2CC(=O)Nc2cc(C)on2)n1` (centres undefined) | 16.05 | 21.44 |
| 56 | `Cc1ccccc1C(=O)N1CC[C@@H](N2CCC(O)CC2)[C@H](O)C1` | -7.564 and -4.651 | 13.94 and -4.974 |
| 57 | `COC(=O)CCNC(=O)c1cc(Br)c2c(c1)OCCO2` | -9.251 | -25.73 |
| 58 | `CCN(CC)C(=O)CN1CCC(c2nc(C)c3c(n2)N(C)CCC3)CC1` | -3.388 | -25.99 |
| 59 | `Cc1c(-c2cccs2)nn2c(O)c3c(nc12)CN(C(=O)C1CC1)C3` | 6.546 and 4.038 | -18.44 |
| 60 | `CN(C)C(=O)N1CC(=O)NCC12CCN(C(=O)c1ccco1)C2` (centres undefined) | -2.208 | -24.09 |
| 61 | `Cc1cnc(N2CCc3c(CNc4ccnc(C)n4)cncc3C2)nc1.Cl` | -7.585 | -36.87 |
| 62 | `COc1ccc(C2=CCN(C(=O)C3CCC3)CC2)cc1` | 0.9065 | 9.07 |
| 63 | `NCC(c1ccc(Cl)cc1)N1CCc2sccc2C1` (centres undefined) | 47.68 | 40.58 |
| 64 | `CC(=O)NC1CCN(c2nc(N)nc3c2CCCC3)C1` (centres undefined) | -4.464 and -10.23 | -13.3 and -6.984 |
| 65 | `CC(CNCc1ccc2c(c1)n(C)c(=O)n2C)Oc1ccccn1.Cl` (centres undefined) | -8.298 | 10.15 |
| 66 | `CCc1ccc(CCC(=O)NCc2nnc[nH]2)cc1` | -14.47 | 3.094 and -26.99 |
| 67 | `NC(=O)NCC(=O)N1CCCC(c2nccn2CC2CCC2)C1` (centres undefined) | 3.557 | 3.208 |
| 68 | `O=C(O)C(F)(F)F.O=C(O)C(F)(F)F.[H][C@@]12CN(Cc3csc(C)n3)CCO[C@]1([H])CN(c1ccc(C)nn1)C2` | 7.86 | -10.53 and -8.958 |
| 69 | `CC(C)NCc1nc(-c2ccc3c(c2)OCO3)c[nH]1.Cl.Cl` | 11.02 | 111.8 and 3.985 |
| 70 | `CCN(Cc1cccc(F)c1)S(=O)(=O)N1CCOCC1` | -5.275 | 5.379 |
| 71 | `Cn1cc(C2CC(=O)NC23CCN(C(=O)c2ccc[nH]2)CC3)cn1` (centres undefined) | 11 | 11.38 and -5.171 |
| 72 | `COc1cc(C(=O)N2CCC(c3n[nH]c(C4CC4)n3)CC2)ccc1C` | 8.129 | -53.34 |
| 73 | `Cc1csc(CNC(=O)N(C)Cc2nnc3n2CCC3)n1` | -11.84 | -27.72 |
| 74 | `[H][C@@]12C[C@H](C(=O)NCC3CC3)[C@@]([H])(CN(C(=O)NCC3CCCCC3)C1)O2` | 1.773 | -2.086 and -5.892 |
| 75 | `C[C@@H]1CN(C(=O)CCCN2CCCC2)CC[C@@]1(O)C1CCOCC1` | 15.07 | 3.278 |
| 76 | `CCOC1CCC2(CCN(C(=O)c3c[nH]cn3)CC2)c2ccccc21` (centres undefined) | 27.14 | 1.43 |
| 77 | `O=C(CCCc1ccccc1)N1CCC(Nc2cccnn2)CC1` | 7.602 | -13.71 |
| 78 | `COC1CCN(c2ccc(F)cc2CN(C)C(=O)c2cc[nH]n2)CC1` | 10.78 | 19.74 |

Once more, the final 6:

SMILES	A	B
Cc1csc(CNC(=O)N(C)Cc2nnc3n2CCC3)n1	-11.84	-27.72
[H][C@@]12C[C@H](C(=O)NCC3CC3)[C@@]([H])(CN(C(=O)NCC3CCCCC3)C1)O2	1.773	-2.086 and -5.892
C[C@@H]1CN(C(=O)CCCN2CCCC2)CC[C@@]1(O)C1CCOCC1	15.07	3.278
CCOC1CCC2(CCN(C(=O)c3c[nH]cn3)CC2)c2ccccc21 (centres undefined)	27.14	1.43
O=C(CCCc1ccccc1)N1CCC(Nc2cccnn2)CC1	7.602	-13.71
COC1CCN(c2ccc(F)cc2CN(C)C(=O)c2cc[nH]n2)CC1	10.78	19.74